The text below walks through data of PMC9940370.

The chains behind the UniProt entries cited, without tags or fusion partners.
UniProt P07355: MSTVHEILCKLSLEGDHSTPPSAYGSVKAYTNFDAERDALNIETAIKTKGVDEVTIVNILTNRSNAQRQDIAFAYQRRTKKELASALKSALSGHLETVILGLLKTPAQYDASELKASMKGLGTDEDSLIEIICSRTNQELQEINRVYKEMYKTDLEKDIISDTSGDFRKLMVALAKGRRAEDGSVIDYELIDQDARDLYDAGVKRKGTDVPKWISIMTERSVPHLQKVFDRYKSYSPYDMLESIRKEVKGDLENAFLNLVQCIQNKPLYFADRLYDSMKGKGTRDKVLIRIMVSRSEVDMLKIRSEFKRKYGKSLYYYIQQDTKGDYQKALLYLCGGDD

Results are given in words; binding and its absence hold for the method and conditions named. In cells and extracts the contact can be indirect. These calls come from enrichment with a bait or labelling near it, and not all partners need be listed. Sequences can lack the tags named with a protein.

This experiment deals with T1, Flag-tagged AQP1 (Flag-AQP1) (human) (UniProt P29972).
T1 sequence: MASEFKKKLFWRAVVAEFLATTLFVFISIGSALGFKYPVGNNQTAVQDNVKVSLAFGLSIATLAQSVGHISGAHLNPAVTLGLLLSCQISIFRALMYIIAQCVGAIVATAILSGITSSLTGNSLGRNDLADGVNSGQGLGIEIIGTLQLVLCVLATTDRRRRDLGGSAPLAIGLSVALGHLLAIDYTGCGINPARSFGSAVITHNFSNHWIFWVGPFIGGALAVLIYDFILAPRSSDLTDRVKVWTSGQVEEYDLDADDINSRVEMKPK
Description: affinity purification with mass spectrometry; extracts of MDA-MB-231 cells stably transfected with Flag-vector or Flag-AQP1, anti-Flag affinity beads, eluted with Flag peptides, SDS-PAGE, silver stain, LC-MS/MS.

On to “ANXA2 (endogenous, MDA-MB-231 cells) (from UniProt P07355 1-339)”, for which the binding entry is given as “binds”.
